How the values were obtained:
[1] = test system: HL-60 (promyelocytic leukemia); experiment: MTT anti-proliferative assay, HL-60; assay type: cell-based; settings: Homo sapiens, 48 h
Description: (§1) To determine the selectivity of the synthesized compounds 7–16 toward various cancer cells and normal human cells, the anti-proliferative activity against K562 (chronic myelogenous leukemia), HL-60 (promyelocytic leukemia), MCF-7 (breast adenocarcinoma), HeLa (cervix carcinoma), HepG2 (human liver cancer), A549 (lung carcinoma), OKP-GS (renal cell carcinoma), and normal cells RPMI 1788 (B lymphocyte, the human cell line) was investigated.
(§2) Each in vitro experiment was performed at least in triplicate and the standard deviation of absorbance was less than 10% of the mean. For the in vitro assays, a stock solution (1% DMSO in the appropriate buffer with the tested compound diluted under sonication) was prepared from which several dilutions were made with the appropriate buffer.
(§3) Human cell lines were obtained from the Institute of Cytology, Russian Academy of Sciences. […] Cellular sensitivities to synthesized compounds and standards were measured with the MTT assay. […] The optical density was read on a HALO MPR-95 Microplate Reader (Dynamica Scientific Ltd., Melbourne, Victoria, Australia) at 570 nm. […] The average of three parallel measurements was calculated for each concentration of test compound. […] The half maximal inhibitory concentration (IC50) was determined graphically for active compounds.

[2] = test system: K562 (chronic myelogenous leukemia); experiment: MTT anti-proliferative assay, K562; assay type: cell-based, human; settings: 48 h
Description: as §1, §2, §3

IC50 [1]: 10200 nM | IC50 [2]: 60 ± 30 nM | IC50 ([2]; listed as imatinib): < 1000 nM
SMILES: Cc1ccc(NC(=O)c2ccc(CN3CCN(C)CC3)cc2)cc1Nc1nccc(-c2cccnc2)n1 [Imatinib, imatinib, reference compound]

From article PMC8657793, “Synthesis, In Vitro and In Silico Anticancer Activity of New 4-Methylbenzamide Derivatives Containing 2,6-Substituted Purines as Potential Protein Kinases Inhibitors” (International Journal of Molecular Sciences, 2021)
